This assay concerns the target snake venom metalloproteinase. Put plainly: IC50 for MP inhibition on various venoms (Table 8, FIG. 20). Type of assay: biochemical. The following applies: general statement; values only in figures.

In the case of `O=C(CCCCCCC(=O)Nc1ccccc1)NO` [Vorinostat], the “IC50s on various venoms” value is given as “micromolar range”.
